Measurements: patent publication US20100310459A1 (THE REGENTS OF THE UNIVERSITY OF MICHIGAN, priority 2009, published 2010)

Experiment: general procedure: Fmoc solid-phase peptide synthesis
Settings: whole synthesis, reverse phase HPLC and mass spectrometry

Substance: NLMPYFS-GGGSK (NLMPYFSGGGSK)
- final HPLC purity: minimum of 90% purity

Substance: SNFYMPL-GGGSK-FITC (SNFYMPLGGGSK; C-terminal FITC)
- final HPLC purity: minimum of 90% purity
